The record followed here is article PMC3828177.

These are yes or no findings as the source states them, for the method shown. Binding seen in cells or lysates may run through a third protein. A result given as binding can be weak or reduced; the word gives no strength. Sequences can lack the tags named with a protein.

B1: FLAG-Cdc55 (wild type) (protein, UniProt Q00362 1-526)
chain: MAQNNFDFKFSQCFGDKADIVVTEADLITAVEFDYTGNYLATGDKGGRVVLFERSNSRHCEYKFLTEFQSHDAEFDYLKSLEIEEKINEIKWLRPTQRSHFLLSTNDKTIKLWKVYEKNIKLVSQNNLTEGVTFAKKGKPDNHNSRGGSVRAVLSLQSLKLPQLSQHDKIIAATPKRIYSNAHTYHINSISLNSDQETFLSADDLRINLWNLDIPDQSFNIVDIKPTNMEELTEVITSAEFHPQECNLFMYSSSKGTIKLCDMRQNSLCDNKTKTFEEYLDPINHNFFTEITSSISDIKFSPNGRYIASRDYLTVKIWDVNMDNKPLKTINIHEQLKERLSDTYENDAIFDKFEVNFSGDSSSVMTGSYNNNFMIYPNVVTSGDNDNGIVKTFDEHNAPNSNSNKNIHNSIQNKDSSSSGNSHKRRSNGRNTGMVGSSNSSRSSIAGGEGANSEDSGTEMNEIVLQADKTAFRNKRYGSLAQRSARNKDWGDDIDFKKNILHFSWHPRENSIAVAATNNLFIFSAL
B2: FLAG-Cdc55 D342K/E345K/D347K (protein, UniProt Q00362 1-526)
chain: MAQNNFDFKFSQCFGDKADIVVTEADLITAVEFDYTGNYLATGDKGGRVVLFERSNSRHCEYKFLTEFQSHDAEFDYLKSLEIEEKINEIKWLRPTQRSHFLLSTNDKTIKLWKVYEKNIKLVSQNNLTEGVTFAKKGKPDNHNSRGGSVRAVLSLQSLKLPQLSQHDKIIAATPKRIYSNAHTYHINSISLNSDQETFLSADDLRINLWNLDIPDQSFNIVDIKPTNMEELTEVITSAEFHPQECNLFMYSSSKGTIKLCDMRQNSLCDNKTKTFEEYLDPINHNFFTEITSSISDIKFSPNGRYIASRDYLTVKIWDVNMDNKPLKTINIHEQLKERLSKTYKNKAIFDKFEVNFSGDSSSVMTGSYNNNFMIYPNVVTSGDNDNGIVKTFDEHNAPNSNSNKNIHNSIQNKDSSSSGNSHKRRSNGRNTGMVGSSNSSRSSIAGGEGANSEDSGTEMNEIVLQADKTAFRNKRYGSLAQRSARNKDWGDDIDFKKNILHFSWHPRENSIAVAATNNLFIFSAL
B3: FLAG-Cdc55 D342K (protein, UniProt Q00362 1-526)
chain: MAQNNFDFKFSQCFGDKADIVVTEADLITAVEFDYTGNYLATGDKGGRVVLFERSNSRHCEYKFLTEFQSHDAEFDYLKSLEIEEKINEIKWLRPTQRSHFLLSTNDKTIKLWKVYEKNIKLVSQNNLTEGVTFAKKGKPDNHNSRGGSVRAVLSLQSLKLPQLSQHDKIIAATPKRIYSNAHTYHINSISLNSDQETFLSADDLRINLWNLDIPDQSFNIVDIKPTNMEELTEVITSAEFHPQECNLFMYSSSKGTIKLCDMRQNSLCDNKTKTFEEYLDPINHNFFTEITSSISDIKFSPNGRYIASRDYLTVKIWDVNMDNKPLKTINIHEQLKERLSKTYENDAIFDKFEVNFSGDSSSVMTGSYNNNFMIYPNVVTSGDNDNGIVKTFDEHNAPNSNSNKNIHNSIQNKDSSSSGNSHKRRSNGRNTGMVGSSNSSRSSIAGGEGANSEDSGTEMNEIVLQADKTAFRNKRYGSLAQRSARNKDWGDDIDFKKNILHFSWHPRENSIAVAATNNLFIFSAL
B4: FLAG-Cdc55 E84K (protein, UniProt Q00362 1-526)
chain: MAQNNFDFKFSQCFGDKADIVVTEADLITAVEFDYTGNYLATGDKGGRVVLFERSNSRHCEYKFLTEFQSHDAEFDYLKSLEIKEKINEIKWLRPTQRSHFLLSTNDKTIKLWKVYEKNIKLVSQNNLTEGVTFAKKGKPDNHNSRGGSVRAVLSLQSLKLPQLSQHDKIIAATPKRIYSNAHTYHINSISLNSDQETFLSADDLRINLWNLDIPDQSFNIVDIKPTNMEELTEVITSAEFHPQECNLFMYSSSKGTIKLCDMRQNSLCDNKTKTFEEYLDPINHNFFTEITSSISDIKFSPNGRYIASRDYLTVKIWDVNMDNKPLKTINIHEQLKERLSDTYENDAIFDKFEVNFSGDSSSVMTGSYNNNFMIYPNVVTSGDNDNGIVKTFDEHNAPNSNSNKNIHNSIQNKDSSSSGNSHKRRSNGRNTGMVGSSNSSRSSIAGGEGANSEDSGTEMNEIVLQADKTAFRNKRYGSLAQRSARNKDWGDDIDFKKNILHFSWHPRENSIAVAATNNLFIFSAL
B5: FLAG-Cdc55 E345K (protein, UniProt Q00362 1-526)
chain: MAQNNFDFKFSQCFGDKADIVVTEADLITAVEFDYTGNYLATGDKGGRVVLFERSNSRHCEYKFLTEFQSHDAEFDYLKSLEIEEKINEIKWLRPTQRSHFLLSTNDKTIKLWKVYEKNIKLVSQNNLTEGVTFAKKGKPDNHNSRGGSVRAVLSLQSLKLPQLSQHDKIIAATPKRIYSNAHTYHINSISLNSDQETFLSADDLRINLWNLDIPDQSFNIVDIKPTNMEELTEVITSAEFHPQECNLFMYSSSKGTIKLCDMRQNSLCDNKTKTFEEYLDPINHNFFTEITSSISDIKFSPNGRYIASRDYLTVKIWDVNMDNKPLKTINIHEQLKERLSDTYKNDAIFDKFEVNFSGDSSSVMTGSYNNNFMIYPNVVTSGDNDNGIVKTFDEHNAPNSNSNKNIHNSIQNKDSSSSGNSHKRRSNGRNTGMVGSSNSSRSSIAGGEGANSEDSGTEMNEIVLQADKTAFRNKRYGSLAQRSARNKDWGDDIDFKKNILHFSWHPRENSIAVAATNNLFIFSAL
B6: FLAG-Cdc55 K86E (protein, UniProt Q00362 1-526)
chain: MAQNNFDFKFSQCFGDKADIVVTEADLITAVEFDYTGNYLATGDKGGRVVLFERSNSRHCEYKFLTEFQSHDAEFDYLKSLEIEEEINEIKWLRPTQRSHFLLSTNDKTIKLWKVYEKNIKLVSQNNLTEGVTFAKKGKPDNHNSRGGSVRAVLSLQSLKLPQLSQHDKIIAATPKRIYSNAHTYHINSISLNSDQETFLSADDLRINLWNLDIPDQSFNIVDIKPTNMEELTEVITSAEFHPQECNLFMYSSSKGTIKLCDMRQNSLCDNKTKTFEEYLDPINHNFFTEITSSISDIKFSPNGRYIASRDYLTVKIWDVNMDNKPLKTINIHEQLKERLSDTYENDAIFDKFEVNFSGDSSSVMTGSYNNNFMIYPNVVTSGDNDNGIVKTFDEHNAPNSNSNKNIHNSIQNKDSSSSGNSHKRRSNGRNTGMVGSSNSSRSSIAGGEGANSEDSGTEMNEIVLQADKTAFRNKRYGSLAQRSARNKDWGDDIDFKKNILHFSWHPRENSIAVAATNNLFIFSAL
B7: FLAG-Cdc55 E82K (protein, UniProt Q00362 1-526)
chain: MAQNNFDFKFSQCFGDKADIVVTEADLITAVEFDYTGNYLATGDKGGRVVLFERSNSRHCEYKFLTEFQSHDAEFDYLKSLKIEEKINEIKWLRPTQRSHFLLSTNDKTIKLWKVYEKNIKLVSQNNLTEGVTFAKKGKPDNHNSRGGSVRAVLSLQSLKLPQLSQHDKIIAATPKRIYSNAHTYHINSISLNSDQETFLSADDLRINLWNLDIPDQSFNIVDIKPTNMEELTEVITSAEFHPQECNLFMYSSSKGTIKLCDMRQNSLCDNKTKTFEEYLDPINHNFFTEITSSISDIKFSPNGRYIASRDYLTVKIWDVNMDNKPLKTINIHEQLKERLSDTYENDAIFDKFEVNFSGDSSSVMTGSYNNNFMIYPNVVTSGDNDNGIVKTFDEHNAPNSNSNKNIHNSIQNKDSSSSGNSHKRRSNGRNTGMVGSSNSSRSSIAGGEGANSEDSGTEMNEIVLQADKTAFRNKRYGSLAQRSARNKDWGDDIDFKKNILHFSWHPRENSIAVAATNNLFIFSAL
B8: FLAG-Cdc55 D347K (protein, UniProt Q00362 1-526)
chain: MAQNNFDFKFSQCFGDKADIVVTEADLITAVEFDYTGNYLATGDKGGRVVLFERSNSRHCEYKFLTEFQSHDAEFDYLKSLEIEEKINEIKWLRPTQRSHFLLSTNDKTIKLWKVYEKNIKLVSQNNLTEGVTFAKKGKPDNHNSRGGSVRAVLSLQSLKLPQLSQHDKIIAATPKRIYSNAHTYHINSISLNSDQETFLSADDLRINLWNLDIPDQSFNIVDIKPTNMEELTEVITSAEFHPQECNLFMYSSSKGTIKLCDMRQNSLCDNKTKTFEEYLDPINHNFFTEITSSISDIKFSPNGRYIASRDYLTVKIWDVNMDNKPLKTINIHEQLKERLSDTYENKAIFDKFEVNFSGDSSSVMTGSYNNNFMIYPNVVTSGDNDNGIVKTFDEHNAPNSNSNKNIHNSIQNKDSSSSGNSHKRRSNGRNTGMVGSSNSSRSSIAGGEGANSEDSGTEMNEIVLQADKTAFRNKRYGSLAQRSARNKDWGDDIDFKKNILHFSWHPRENSIAVAATNNLFIFSAL
B9: FLAG-Cdc55 E82K/E84K/E85K/K86E (protein, UniProt Q00362 1-526)
chain: MAQNNFDFKFSQCFGDKADIVVTEADLITAVEFDYTGNYLATGDKGGRVVLFERSNSRHCEYKFLTEFQSHDAEFDYLKSLKIKKEINEIKWLRPTQRSHFLLSTNDKTIKLWKVYEKNIKLVSQNNLTEGVTFAKKGKPDNHNSRGGSVRAVLSLQSLKLPQLSQHDKIIAATPKRIYSNAHTYHINSISLNSDQETFLSADDLRINLWNLDIPDQSFNIVDIKPTNMEELTEVITSAEFHPQECNLFMYSSSKGTIKLCDMRQNSLCDNKTKTFEEYLDPINHNFFTEITSSISDIKFSPNGRYIASRDYLTVKIWDVNMDNKPLKTINIHEQLKERLSDTYENDAIFDKFEVNFSGDSSSVMTGSYNNNFMIYPNVVTSGDNDNGIVKTFDEHNAPNSNSNKNIHNSIQNKDSSSSGNSHKRRSNGRNTGMVGSSNSSRSSIAGGEGANSEDSGTEMNEIVLQADKTAFRNKRYGSLAQRSARNKDWGDDIDFKKNILHFSWHPRENSIAVAATNNLFIFSAL
B10: FLAG-Cdc55 E85K (protein, UniProt Q00362 1-526)
chain: MAQNNFDFKFSQCFGDKADIVVTEADLITAVEFDYTGNYLATGDKGGRVVLFERSNSRHCEYKFLTEFQSHDAEFDYLKSLEIEKKINEIKWLRPTQRSHFLLSTNDKTIKLWKVYEKNIKLVSQNNLTEGVTFAKKGKPDNHNSRGGSVRAVLSLQSLKLPQLSQHDKIIAATPKRIYSNAHTYHINSISLNSDQETFLSADDLRINLWNLDIPDQSFNIVDIKPTNMEELTEVITSAEFHPQECNLFMYSSSKGTIKLCDMRQNSLCDNKTKTFEEYLDPINHNFFTEITSSISDIKFSPNGRYIASRDYLTVKIWDVNMDNKPLKTINIHEQLKERLSDTYENDAIFDKFEVNFSGDSSSVMTGSYNNNFMIYPNVVTSGDNDNGIVKTFDEHNAPNSNSNKNIHNSIQNKDSSSSGNSHKRRSNGRNTGMVGSSNSSRSSIAGGEGANSEDSGTEMNEIVLQADKTAFRNKRYGSLAQRSARNKDWGDDIDFKKNILHFSWHPRENSIAVAATNNLFIFSAL

The experiment addresses HA-E4orf4 (wild type), expressed in yeast (human adenovirus). Put plainly: co-IP; lysates of cdc55Δ yeast (YS95) expressing FLAG-Cdc55 species and galactose-induced HA-E4orf4; reciprocal anti-FLAG and anti-HA precipitations; blots with anti-HA, anti-FLAG and anti-Tpd3.
Turning to B1, the binding entry is reported as “binds”.
As to B2, the binding result is listed as “no binding”.
With B3, the binding entry was “binds”.
Then B4, with “binds weakly”; and B5, with “binds”; and B6, with “binds”.
Regarding B7, the binding entry is on record as “binds”.
Take B8: the binding result is “no binding”.
With B9, the binding result was “no binding”.
The same measure for B10: “binds”.
